Assay results taken from PubChem BioAssay AID2685 (National Center for Advancing Translational Sciences (NCATS), 2010).
Some of the results follow. The main result of the screen is listed elsewhere. These columns were measured beside it and carry no call. Most of these compounds were active or inconclusive in the main read-out, so they are no random draw. Potencies come from curve fits of mixed quality, noted in brackets.

Test: qHTS Assay for Lipid Storage Modulators in Drosophila S3 Cells;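 on cell number change: cells counted by Cell Tracker Red CMTPX staining in the red channel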
Settings: BODIPY lipid droplet fluorescence, 18-24 h; for cell number change: measured here: cell count max response, cells fed with added oleic acid
How it was run: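 Drosophila S3 cells loaded with oleic acid (400 uM, as added) and compounds at several concentrations; lipid droplets imaged by 488-nm laser-scanning cytometry, 500–530 nm intensity and object ratio to cell channel. Percent activity normalized to 20 uM Triacsin C.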

[1] = measured here: lipid fluorescence (Fed channel) AC50, cells fed with added oleic acid
[2] = measured here: cell number channel AC50, cells fed with added oleic acid

With `Nc1c(C(=O)Nc2ccccc2)sc2nc3c(c(-c4ccco4)c12)CCC3` the cell number change was 20.5%.

With `COCCCn1c(C)cc(C(=O)COC(=O)C23CC4CC(CC(O)(C4)C2)C3)c1C` the AC50 [1] was 0.82 µM [rising, full curve, poor fit].

Compound `CC(=O)Oc1c(S(=O)(=O)c2ccc(C)cc2)c(C)nn1C(C)(C)C` has a cell number change of -2.59%.

With `O=S(=O)(/N=C(/Nc1ccccn1)c1ccc(Cl)cc1)c1ccc(Cl)cc1` the cell number change was 19.1% and the AC50 [1] was 23.1 µM [falling, partial curve, poor fit].

In the case of `O=C(N/N=C/c1cc2c(cc1[N+](=O)[O-])OCO2)c1ccc2c(c1)OCO2`, the cell number change is reported as 1.9% and the AC50 [1] is reported as 5.17 µM [rising, partial curve].

With `O=C(O)c1cnn2c1NC(c1ccc(F)cc1)CC2C(F)(F)F` (stereo not given) the cell number change was -82.7% and the AC50 [2] was 32.6 µM [falling, partial curve, poor fit].

With `O=C(c1cc(-c2ccc(Br)cc2)on1)N1CCCCCC1` the cell number change was 6.25% and the AC50 [1] was 0.13 µM [falling, single point].

For `Cc1cc(NC(=O)C(C)SCC(=O)Nc2nnc(CC(C)C)s2)no1` (stereo not given), the cell number change was -35.7% and the AC50 [2] was 29.1 µM [falling, single point].

With `O=C(N/N=C1\NC(=O)C(CO)(CO)S1)c1ccccc1` the cell number change was 5.58% and the AC50 [1] was 1.64 µM [falling, partial curve].

With `CC(C)OCCCNC(=O)Cn1nc(-c2ccccc2)ccc1=O` the cell number change was 14% and the AC50 [1] was 13 µM [rising, partial curve, poor fit].

For `CN(CP(=O)(O)CCc1ccccc1)S(C)(=O)=O`, the cell number change was -7.65%.

In the case of `Cn1c(-c2ccccc2)cc2onc(-c3ccccc3)c2c1=O`, the cell number change is reported as -25.7% and the AC50 [1] is reported as 0.326 µM [falling, single point].

For `CC(C)c1cccc(C(C)C)c1OC(=O)[C@H]1OC(C(C)(C)C)=C[C@@H]1c1ccccc1`, the cell number change was -31.6% and the AC50 [2] was 7.31 µM [falling, single point].

For `COc1ccc(-c2cc(C(F)(F)F)n3nc(C(=O)NCc4ccco4)c(Cl)c3n2)cc1`, the cell number change was 5.94% and the AC50 [1] was 29.1 µM [rising, single point].

With `CC1CCN(CC(=O)NC(=O)NCc2ccccc2)CC1` the cell number change was 0.235% and the AC50 [1] was 29.1 µM [falling, single point].

With `O=C(Nc1ccc(CN2CCOCC2)cc1)c1ccc(-c2cc(Cl)ccc2Cl)o1` the cell number change was -16.9% and the AC50 [1] was 20.6 µM [rising, partial curve].

For `COc1ccccc1NC(=O)CSc1nnc(C)s1`, the cell number change was -3.63%.

With `O=C(Nc1ccc(OC(F)F)cc1)Nc1cccc(C(F)(F)F)c1` the cell number change was -55.4%, the AC50 [2] was 25.9 µM [falling, partial curve, poor fit] and the AC50 [1] was 7.31 µM [falling, partial curve].

With `COc1cc(/C=C(/C#N)C(=O)NC(C)c2ccccc2)cc(OC)c1O` (stereo not given) the cell number change was 15.4%.

In the case of `CCCCCCNC(=O)c1cn(CC)c2cc(N3CCN(C)CC3)c(F)cc2c1=O`, the cell number change is reported as -34.6%, the AC50 [2] is reported as 23.1 µM [falling, single point] and the AC50 [1] is reported as 20.6 µM [falling, partial curve, poor fit].

With `Fc1ccc(-c2nnc(NC3=NCCCCC3)o2)cc1` the cell number change was -13% and the AC50 [1] was 0.0259 µM [falling, full curve, poor fit].

With `CCCCCn1cnc2c(=S)nc(N)[nH]c21` the cell number change was -33.3% and the AC50 [2] was 3.66 µM [falling, partial curve, poor fit].

For `Cc1ccc(S(=O)(=O)NC(=NC(Cc2ccccc2)C(=O)O)c2ccccc2)cc1` (stereo not given), the cell number change was 31% and the AC50 [2] was 0.0651 µM [rising, full curve, poor fit].

In the case of `CCN1/C(=C/c2ccc3cccc(C)c3[n+]2CC)Sc2ccccc21`, the cell number change is reported as -43.1%, the AC50 [2] is reported as 25.9 µM [falling, single point] and the AC50 [1] is reported as 0.411 µM [falling, full curve].

In the case of `COc1cccc(CN(C)C(=O)c2ccc(NC(=O)CC3SC(N4CCCC4)=NC3=O)cc2)c1OC` (stereo not given), the cell number change is reported as 26.5%.

For `OCCCc1nc2n(n1)C(c1cccs1)C=C(c1ccc(Br)cc1)N2` (stereo not given), the cell number change was -61.3%, the AC50 [2] was 29.1 µM [falling, single point] and the AC50 [1] was 29.1 µM [falling, single point].

In the case of `O=C(O)C1C(c2ccccc2)C(C(=O)OCCCO)C1c1ccccc1` (stereo not given), the cell number change is reported as 10.5% and the AC50 [1] is reported as 3.66 µM [falling, full curve, poor fit].

For `Cc1cc(C)n(-c2cc(-c3ccccc3)nc(C)n2)n1`, the cell number change was -11.7% and the AC50 [1] was 4.11 µM [rising, full curve].

With `OCCNC(=S)NCCc1ccccc1` the cell number change was -48.4%, the AC50 [2] was 25.9 µM [falling, partial curve, poor fit] and the AC50 [1] was 16.4 µM [falling, single point].

Compound `CCOC(=O)CCCCC(=O)c1[nH]c(=O)[nH]c1CSc1nc(-c2ccccc2)c(C#N)c(=O)[nH]1` has a cell number change of 10.6%.

With `C=CCN1C(=O)[C@@H]2Cc3c([nH]c4ccccc34)C(c3cc(OC)c(OC)c(OC)c3)N2C1=S` (stereo not given in full) the cell number change was 249%, the AC50 [2] was 29.1 µM [rising, single point] and the AC50 [1] was 29.1 µM [rising, single point].

For `Cc1cccc(N(CC(=O)NC2CCCCC2)C(=O)CCC(=O)Nc2ccccn2)c1`, the AC50 [2] was 1.16 µM [rising, partial curve] and the AC50 [1] was 0.731 µM [rising, full curve].

With `CC/C(=N\NC(=O)c1ccc2c(c1)OCO2)c1ccccc1` the cell number change was 31.2%, the AC50 [2] was 7.31 µM [rising, full curve, poor fit] and the AC50 [1] was 29.1 µM [rising, single point].

Compound `COc1ccccc1Cn1c(=S)[nH]c2cc(C(=O)NCCCN3CCOCC3)ccc2c1=O` has a cell number change of -19.1%.

In the case of `CC(C(=O)NCc1ccco1)n1cc(C(=O)c2ccco2)c2ccccc21` (stereo not given), the cell number change is reported as -9.39% and the AC50 [1] is reported as 25.9 µM [rising, single point].

For `CCNC(=S)N/N=C/c1cn(Cc2ccccc2F)c2ccccc12`, the cell number change was -30.7% and the AC50 [1] was 25.9 µM [falling, single point].

With `S=c1[nH]nc(-c2ccccc2)n1/N=C/c1ccc(-c2ccccc2Cl)o1` the cell number change was -54.8%, the AC50 [2] was 29.1 µM [falling, single point] and the AC50 [1] was 2.31 µM [rising, partial curve].

For `CCCCOC(=O)n1c(=O)oc2cc(S(=O)(=O)N3CCCCC3)ccc21`, the cell number change was -133%, the AC50 [2] was 25.9 µM [falling, partial curve] and the AC50 [1] was 1.03 µM [falling, full curve].

For `COC(=O)Cc1[nH]nc2c1C1(C(=O)N(Cc3ccc(Cl)cc3)c3ccccc31)C(C#N)=C(N)O2` (stereo not given), the cell number change was 2.57% and the AC50 [1] was 4.11 µM [rising, single point].

For `CCc1ccc(NC(=O)[C@H](C)NC(=O)C2CCN(C(=O)[C@@H](N)CC(C)C)CC2)cc1`, the cell number change was 14.2% and the AC50 [1] was 8.2 µM [rising, partial curve].

In the case of `O/N=C/Cc1[nH]c2ccccc2c1-c1ccccc1`, the cell number change is reported as -33.9%, the AC50 [2] is reported as 16.4 µM [falling, single point] and the AC50 [1] is reported as 29.1 µM [falling, single point].

For `O=C(COC(=O)CCC(=O)c1ccccc1)Nc1nnc(-c2ccccc2)o1`, the cell number change was -17.8% and the AC50 [1] was 0.103 µM [falling, full curve, poor fit].

In the case of `CCn1c(Nc2ccccc2Cl)nc2ccccc21`, the AC50 [1] is reported as 0.461 µM [rising, partial curve, poor fit].

For `CN(Cc1ccccc1)C(=O)CCC1CCN(C(=O)CC2=CCCCC2)CC1`, the AC50 [1] was 6.51 µM [rising, single point].

With `CC1(C)Cc2cccc(Oc3ccc(S(=O)(=O)N4CCCCC4)cn3)c2O1` the cell number change was -0.622% and the AC50 [2] was 6.51 µM [falling, single point].

`COc1ccccc1NC(=O)CSc1nnc(CNC(=O)c2ccccc2F)o1` gave a cell number change of 18.4%.

With `Cc1cccc(C)c1NC(=O)CN(C)C(=O)Cc1cccc(C(F)(F)F)c1` the cell number change was 6.67% and the AC50 [1] was 0.411 µM [rising, partial curve].

In the case of `Cc1ccn(-c2cccc(-n3ccc(C)n3)n2)n1`, the cell number change is reported as 5.36% and the AC50 [1] is reported as 25.9 µM [rising, single point].

With `CC(C)N1CCN(Cc2ccc(Sc3nncn3C)o2)CC1CCO` (stereo not given) the cell number change was -42.9%, the AC50 [2] was 0.291 µM [falling, full curve, poor fit] and the AC50 [1] was 29.1 µM [falling, single point].

With `CSc1cccc(CN2CCC(Oc3cccc(C(=O)N4CCCC4)c3)CC2)c1` the cell number change was -23.3% and the AC50 [1] was 29.1 µM [rising, single point].

With `COc1ccccc1NS(=O)(=O)c1cc(C)ccc1C` the cell number change was 37.6% and the AC50 [2] was 4.61 µM [rising, partial curve].

In the case of `COc1ccc(/C=C/C(=O)Nc2nc(C)cc(C)n2)cc1OC`, the cell number change is reported as 2.76%.

With `COc1ccccc1C(=O)NCC1CCN(c2ccc(S(=O)(=O)N3CCOCC3)cc2)CC1` the cell number change was 289%, the AC50 [2] was 8.2 µM [rising, partial curve] and the AC50 [1] was 2.31 µM [rising, partial curve].

With `O=C(NNS(=O)(=O)c1ccc2ccccc2c1)NC1CCCCC1` the cell number change was 30%.

In the case of `COC(=O)Cc1ccc(NC(=O)c2ccc3c(c2)C(=O)N(CC2CCCO2)C3=O)cc1` (stereo not given), the cell number change is reported as -39.5%, the AC50 [2] is reported as 13 µM [falling, partial curve, poor fit] and the AC50 [1] is reported as 11.6 µM [falling, partial curve].

In the case of `CCOc1ccc(S(=O)(=O)NCc2ccco2)cc1`, the cell number change is reported as -3.95% and the AC50 [1] is reported as 0.731 µM [falling, full curve].

With `Cc1ccc(C(=O)Nc2cccnc2)cc1S(=O)(=O)N1CCCC1` the cell number change was -21.3% and the AC50 [1] was 20.6 µM [falling, single point].

With `COc1ccc([C@@H]2[C@@H]3C(=O)N(C(C)(C)C)C(=O)[C@@H]3[C@]3(CC(C)C)C(=O)N(c4cccc(F)c4)C(=O)N23)cc1` the cell number change was 21.1% and the AC50 [1] was 4.11 µM [falling, single point].
